## Primary screen of a compound library

Source: ChEMBL document CHEMBL3988442, “University of Dundee, Small-Polar-MMV Screening Library” (2021).

Each number is a percent effect as filed. The controls that fix the scale are not given in the record; negative values are as filed. Compounds were drawn at random from those tested, without regard to their results. Two or more numbers in one place are separate tests of the same structure; such repeats can differ widely.

A: 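Whole-parasite assay of Trypanosoma brucei over 72 hours; the read-out is not stated. Compounds at 30 µM. Direction is inferred from retests: higher values go with stronger inhibition. Values scatter widely below zero; nearly all retest evidence comes from the higher of the two concentrations used. Size under these conditions: about 64,000 compounds, about 940 of them at 50% or above in at least one test.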
B: 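Assay of Toxoplasma gondii numbers, read through their beta-galactosidase reporter with a colour substrate. Concentration: 10 µM. The record gives no direction; the compounds picked for IC50 retests had high values, so higher reads as fewer parasites. Of about 67,000 compounds tested this way, about 260 (0.38%) reached 50% or more in at least one test.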
C: 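Cell assay of Leishmania donovani living inside macrophages; the read-out is not stated. Tested at 30 µM. The record gives no direction; compounds that gave an IC50 in retests scored well above the rest, so higher reads as stronger inhibition. Of about 69,000 compounds tested this way, about 1,000 (1.5%) reached 50% or more in at least one test.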

Result for Cn1cc(C2CCCN2Cc2csc(-c3ccsc3)n2)cn1 (stereo not drawn) was A: -40.51%; C: 18.38%. With COCC(=O)NCc1cccnc1-n1cnc2ccccc21 the screen gave A: 6.997%; B: -3.073%; C: -9.137%. Result for CN(C)c1ncccc1C(=O)N1CCN(C2=NCC(C)(C)S2)CC1 was A: 5.208%; B: 1.337%; C: -13.44%. Cc1nccn1CC1CCCN(C(=O)Cc2ccsc2)C1 (stereo not drawn) gave A: -19.87%; B: -7.536%; C: 72.54%. Cc1ccccc1OCC1CCCN(C(=O)Cc2c[nH]c(=O)[nH]c2=O)C1 (stereo not drawn) gave A: -66.24%; B: -5.408%; C: 9.88%. CS(=O)(=O)NC[C@H]1Cn2c(-c3ccccc3)cnc2CO1 gave A: 5.586%; B: -2.657%; C: 10.99%.

With Cc1cc2ccccc2n1CC(=O)N[C@@H](C)C(=O)O the screen gave A: -6.279%; B: 0.2651%; C: 39.12%. Result for Cc1cccc(CNC2CCCc3c2cnn3Cc2ccccc2)c1.Cl (stereo not drawn) was A: 96.36%; B: 9.626%; C: 19.88%. Result for CN(C)c1ccc(CCNC(=O)C2CCC(=O)N(C3CCCC3)C2)cc1 (stereo not drawn) was A: 22.25%; B: -4.956%; C: 28.14%. COCCN1CCC(CNC(=O)C2(NC(C)=O)CCCCC2)CC1 gave A: -9.003%; B: -7.083%; C: 0.2476%. For Cc1nc2cc(=O)[nH]n2c(C)c1CC(=O)NCc1ccoc1 the result was B: 0.4475%; C: 3.631%. Result for O=C(O)C(F)(F)F.[H][C@@]12CCN(c3cnccn3)C[C@]1([H])CN(C(=O)C1CCCC1)C2 was A: -13.6%; B: 10.45%; C: 10.31%.

O=C(O)C(F)(F)F.[H][C@]12CCC[C@@]1(COc1ccccn1)CN(C(=O)c1cc(C)nn1CC)C2 gave A: 45.81%; B: 1.486%; C: 28.12%. O=C(O)C(F)(F)F.[H][C@@]12CCN(C(=O)Cc3cccs3)[C@@]1([H])CC(=O)N2Cc1cccnc1 gave A: 4.356%; B: 6.969%; C: 30.14%. For Cc1ccc(CN2CCCC(c3cncc(C)n3)C2)cn1 (stereo not drawn) the result was A: 11.88%; B: -6.406%; C: 17.56% and 10.97%. CSCCC(=O)N1CCCC(c2ncc[nH]2)C1 (stereo not drawn) gave A: -9.384%; B: -13.31%; C: 3.393%. CCOc1cccc(NC(=O)c2cc(C)on2)n1 read A: -26.65%; B: 8.08%; C: -4.933%. COc1cccc(OC2CN(C(=O)C3CCCN(C(=O)N(C)C)C3)C2)c1 (stereo not drawn) read A: -12.94%; B: -1.082%; C: -7.834%.

Cc1cc2c(=O)n3c(nc2s1)CCN(Cc1c[nH]cn1)CC3.Cl gave A: -62.67%; B: 12.32%; C: 7.181% and 3.85%. [H][C@@]12CCCC[C@]1([H])CN(CC(C)n1cnc3ccccc31)CC2 (stereo partly drawn) read A: -13.82%; B: 7.947%; C: 3.074%. O=C(Nc1cc(-n2cccc2)ccc1F)N1CCCC1 gave A: 5.426%; B: -15.35%; C: -4.724%. NC(=O)CN1CCCC(Cc2ccc(N)nn2)C1 (stereo not drawn) gave A: -25.93%; B: 23.69%; C: -3.708% and 4.288%. Cc1ncc(CNC(=O)CCc2cccs2)c(C2CCCN2C)n1 (stereo not drawn) gave A: 30.04%; B: 14.35%; C: 9.336% and 14.56%. For [H][C@@]12COC[C@]1([H])[C@@H](OCC1CC1)CN2C(=O)c1ccnnc1 the result was A: 30.31%; B: 1.249%; C: 15.2%.

3 of the entries, repeated:

For CN(C)c1ccc(CCNC(=O)C2CCC(=O)N(C3CCCC3)C2)cc1 (stereo not drawn) the result was A: 22.25%; B: -4.956%; C: 28.14%.
For COCC(=O)NCc1cccnc1-n1cnc2ccccc21 the result was A: 6.997%; B: -3.073%; C: -9.137%.
For O=C(Nc1cc(-n2cccc2)ccc1F)N1CCCC1 the result was A: 5.426%; B: -15.35%; C: -4.724%.